The source of these data is paper PMC5606850, “Acidic C-terminal domains autoregulate the RNA chaperone Hfq” (eLife, 2017).

No constants are given. Whether binding was seen depends on the method and setting.

The experiment concerns the target T1, CTDpos-FITC (CTD peptide containing the mutated C-terminal tip RSNKTN) (E. coli).
T1 sequence (peptide, FITC-Ahx on the N-terminus; C-terminal COOH): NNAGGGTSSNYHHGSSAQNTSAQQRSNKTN
Nature of the experiment: fluorescence polarisation; 45 nM FITC-labelled peptide titrated with Hfq65 or variant (0–100 µM Hfq monomer), 50 mM Tris·HCl pH 7.5 (low salt), 30 °C, duplicate, single-site isotherm; Kd in Hfq monomer; both purified. (In general: Fluorescence polarisation rises when a labelled molecule tumbles more slowly, as on binding a larger partner.)

In the case of “E. coli Hfq65 (Hfq core; truncated variant lacking the CTD) (from UniProt P0A6X3 1-65) (domain or fragment)”, the binding entry is reported as “no binding (tested: 0–100 µM Hfq monomer)”.
